Assay results: PMC5948213

Target: T1, DDB2 (DNA damage-binding protein 2), endogenous in HeLa nuclear extract (human (HeLa cells)) (UniProt Q92466)
T1 sequence (looked up, limits assumed): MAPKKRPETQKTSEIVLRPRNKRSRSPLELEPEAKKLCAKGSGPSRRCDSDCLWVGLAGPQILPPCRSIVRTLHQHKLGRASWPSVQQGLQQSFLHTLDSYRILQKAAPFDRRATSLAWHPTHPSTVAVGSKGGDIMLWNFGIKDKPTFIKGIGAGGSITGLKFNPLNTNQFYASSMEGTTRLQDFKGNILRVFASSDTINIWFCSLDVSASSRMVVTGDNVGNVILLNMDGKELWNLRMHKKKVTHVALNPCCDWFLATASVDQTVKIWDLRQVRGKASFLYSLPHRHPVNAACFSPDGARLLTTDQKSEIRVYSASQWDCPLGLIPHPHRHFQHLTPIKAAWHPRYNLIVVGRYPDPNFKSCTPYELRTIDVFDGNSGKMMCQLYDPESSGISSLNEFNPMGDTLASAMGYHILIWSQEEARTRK
Assay: EMSA with anti-DDB2 antibody
Conditions: 8 ug HeLa nuclear extract, 2 ug anti-DDB2 reduced the shifted band, 20 uL reaction per Li-Cor instructions (binding buffer not stated), nuclear extract lysis buffer 50 mM Tris-HCl pH 7.4, 150 mM NaCl, 1 mM EDTA, 1% Triton X-100, protein in an extract, label: IRDye700 5' on both strands

Row | Sequence | binding result
1 | AAATTGCTGAGCCAGTCACCTGTGTTCCAG (double strand) [BS1 probe (ALDH1A1 promoter, P1 region)] | binds
2 | GCCAGCAGCCTGTACTCTGAGCC (double strand) [BS7 probe (ALDH1A1 promoter, P7 region)] | binds

Construct, isoform or probe ends are uncertain for at least one entry. Where cells or extracts were used, other partners may take part. Protein sequences can lack the tags named with them.
